No constants are given. Whether binding was seen depends on the method and setting.

Common to all, as to test: SPR; TNFSF member immobilised by amine coupling on a ProteOn GLH chip, S100 protein as analyte; 25°C; 10 mM HEPES-NaOH, 150 mM NaCl, 0.05% TWEEN 20, 1 mM CaCl2, pH 7.4; both purified
(In general: In SPR one partner is held on a chip, and binding of the other changes the refractive index at the surface.)

Assay [1] concerns the target BAFF, TNF ligand superfamily member 13B, soluble form (human).
Assay [2] concerns the target CD40L, TNF ligand superfamily member 5, soluble form (human).
The target in assay [3] is FasL, TNF ligand superfamily member 6, soluble form (human).
The target of assay [4] is OX40L, TNF ligand superfamily member 4, soluble form (human).
Assay [5] addresses T1, RANKL, TNF ligand superfamily member 11, soluble form (human).
T1 sequence: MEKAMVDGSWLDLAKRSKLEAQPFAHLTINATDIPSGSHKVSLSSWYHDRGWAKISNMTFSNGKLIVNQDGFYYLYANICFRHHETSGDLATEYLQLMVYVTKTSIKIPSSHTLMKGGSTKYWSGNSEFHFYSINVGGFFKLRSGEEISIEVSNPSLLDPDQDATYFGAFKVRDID

B1: S100A8 (protein, UniProt P05109 1-93)
chain: MLTELEKALNSIIDVYHKYSLIKGNFHAVYRDDLKKLLETECPQYIRKKGADVWFKELDINTDGAVNFQEFLILVIKMGVAAHKKSHEESHKE
As to B1, the binding result in assay [1], in assay [2], in assay [3], in assay [4] and in assay [5] was “no binding (tested: analyte 62.5 nM to 16 μM)” throughout.

B2: S100A7L2 (protein, UniProt Q5SY68 1-101)
chain: MNIPLGEKVMLDIVAMFRQYSGDDGRMDMPGLVNLMKENFPNFLSGCEKSDMDYLSNALEKKDDNKDKKVNYSEFLSLLGDITIDHHKIMHGVAPCSGGSQ
Turning to B2, the binding entry in assay [1], in assay [2], in assay [3], in assay [4] and in assay [5] was “no binding (tested: analyte 62.5 nM to 16 μM)” in each case.
